From the supplement of paper PMC8728848
The list shows a part of the results.

Key:
Assay in all cases: glycan array binding signal (z-score within array); higher = stronger binding
Conditions in all cases: glycan notation: IUPAC condensed, linker removed
[1] = target: Man(a1-2)Man(a1-3)[Man(a1-2)Man(a1-6)]Man
How it was run: (§1)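 The binding signal is a Z-score computed within each array. Data were drawn from 3228 arrays in the Consortium for Functional Glycomics database, restricted to those with a known protein sequence. Scores were averaged over arrays of the same protein sequence at different concentrations or buffers, and over linkers, and negative values can be taken as non-binding.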

[2] = target: Man(a1-2)Man(a1-3)[Man(a1-2)Man(a1-6)]Man(a1-6)[Man(a1-2)Man(a1-2)Man(a1-3)]Man
How it was run: as §1

[3] = target: Man(a1-2)Man(a1-3)[Man(a1-2)Man(a1-6)]Man(a1-6)[Man(a1-2)Man(a1-2)Man(a1-3)]Man(b1-4)GlcNAc(b1-4)GlcNAc
How it was run: as §1

[4] = target: Man(a1-2)Man(a1-3)[Man(a1-6)]Man(a1-6)[Man(a1-2)Man(a1-3)]Man(b1-4)GlcNAc(b1-4)GlcNAc
How it was run: as §1

[5] = target: Man(a1-2)Man(a1-6)[Man(a1-3)]Man(a1-6)[Man(a1-2)Man(a1-2)Man(a1-3)]Man
How it was run: as §1

[6] = target: Man(a1-2)Man(a1-6)[Man(a1-3)]Man(a1-6)[Man(a1-2)Man(a1-2)Man(a1-3)]Man(b1-4)GlcNAc(b1-4)GlcNAc
How it was run: as §1

Man(a1-3)[Man(a1-6)]Man = target: Man(a1-3)[Man(a1-6)]Man
How it was run: as §1

[7] = target: Man(a1-3)[Man(a1-6)]Man(a1-6)[Man(a1-2)Man(a1-3)]Man(b1-4)GlcNAc(b1-4)GlcNAc
How it was run: as §1

[8] = target: Man(a1-3)[Man(a1-6)]Man(a1-6)[Man(a1-3)]Man
How it was run: as §1

[9] = target: Man(a1-3)[Man(a1-6)]Man(a1-6)[Man(a1-3)]Man(b1-4)GlcNAc(b1-4)GlcNAc
How it was run: as §1

[10] = target: Man(a1-3)[Man(a1-6)]Man(b1-4)GlcNAc(b1-4)GlcNAc
How it was run: as §1

[11] = target: Man(a1-3)[Man(a1-6)]Man(b1-4)GlcNAc(b1-4)[Fuc(a1-6)]GlcNAc
How it was run: as §1

Man(a1-6)Man = target: Man(a1-6)Man
How it was run: as §1

Man(b1-4)GlcNAc = target: Man(b1-4)GlcNAc
How it was run: as §1

MurNAc(b1-4)GlcNAc = target: MurNAc(b1-4)GlcNAc
How it was run: as §1

Neu5Ac(a2-3)Gal = target: Neu5Ac(a2-3)Gal
How it was run: as §1

[12] = target: Neu5Ac(a2-3)Gal(b1-3)GalNAc
How it was run: as §1

[13] = target: Neu5Ac(a2-3)Gal(b1-3)GalNAc(b1-3)Gal(a1-4)Gal(b1-4)Glc
How it was run: as §1

[14] = target: Neu5Ac(a2-3)Gal(b1-3)GalNAc(b1-4)Gal(b1-4)Glc
How it was run: as §1

[15] = target: Neu5Ac(a2-3)Gal(b1-3)GalNAc(b1-4)[Neu5Ac(a2-3)]Gal(b1-4)Glc
How it was run: as §1

[16] = target: Neu5Ac(a2-3)Gal(b1-3)GalNAc(b1-4)[Neu5Ac(a2-8)Neu5Ac(a2-3)]Gal(b1-4)Glc
How it was run: as §1

[17] = target: Neu5Ac(a2-3)Gal(b1-3)GalNAc6S
How it was run: as §1

[18] = target: Neu5Ac(a2-3)Gal(b1-3)GlcNAc
How it was run: as §1

[19] = target: Neu5Ac(a2-3)Gal(b1-3)GlcNAc(b1-2)Man
How it was run: as §1

[20] = target: Neu5Ac(a2-3)Gal(b1-3)GlcNAc(b1-2)Man(a1-3)[GlcNAc(b1-4)][Neu5Ac(a2-3)Gal(b1-3)GlcNAc(b1-2)Man(a1-6)]Man(b1-4)GlcNAc(b1-4)GlcNAc
How it was run: as §1

[21] = target: Neu5Ac(a2-3)Gal(b1-3)GlcNAc(b1-2)Man(a1-3)[Neu5Ac(a2-3)Gal(b1-3)GlcNAc(b1-2)Man(a1-6)]Man(b1-4)GlcNAc(b1-4)GlcNAc
How it was run: as §1

[22] = target: Neu5Ac(a2-3)Gal(b1-3)GlcNAc(b1-2)[Neu5Ac(a2-3)Gal(b1-3)GlcNAc(b1-4)]Man(a1-6)[Neu5Ac(a2-3)Gal(b1-3)GlcNAc(b1-2)Man(a1-3)]Man(b1-4)GlcNAc(b1-4)GlcNAc
How it was run: as §1

[23] = target: Neu5Ac(a2-3)Gal(b1-3)GlcNAc(b1-3)Gal(b1-3)GlcNAc
How it was run: as §1

[24] = target: Neu5Ac(a2-3)Gal(b1-3)GlcNAc(b1-3)Gal(b1-4)GlcNAc
How it was run: as §1

[25] = target: Neu5Ac(a2-3)Gal(b1-3)GlcNAc(b1-3)GalNAc
How it was run: as §1

B1: R2-fiber (Pseudomonas aeruginosa), Q9S576 (protein)
chain: HHHHHHKVAKDLVVSLAYQVRTEDGVLVDESPVSAPLDYLHGHGSLISGLETALEGHEVGDKFDVAVGANDAYGQYDENLVQRVPKDVFMGVDELQVGMRFLAETDQGPVPVEITAVEDDHVVVDGNHMLAGQNLKFNVEVVAIREATEEELAHGHVHGAHDHHHDHDHDGCCGGHGHDHGHEHGGEGCCGGKGNGGCGCHENLYFQGVTAGMALAATDIPGLDASKLVSGVLAEQRLPVFARGLATAVSNSSDPNTATVPLMLTNHANGPVAGRYFYIQSMFYPDQNGNASQIATSYNATSEMYVRVSYAANPSIREWLPWQRCDIGGSFTKEADGELPGGVNLDSMVTSGWWSQSFTAQAASGANYPIVRAGLLHVYAASSNFIYQTYQAYDGESFYFRCRHSNTWFPWRRMWHGGDFNPSDYLLKSGFYWNALPGKPATFPPSAHNHDVGQLTSGILPLARGGVGSNTAAGARSTIGAGVPATASLGASGWWRDNDTGLIRQWGQVTCPADADASITFPIPFPTLCLGGYANQTSAFHPGTDASTGFRGATTTTAVIRNGYFAQAVLSWEAFGR
glycan array binding signal (z-score) [1]: -0.739 | glycan array binding signal (z-score) [2]: -0.717 | glycan array binding signal (z-score) [3]: -0.216 | glycan array binding signal (z-score) [4]: -0.822 | glycan array binding signal (z-score) [5]: -0.104 | glycan array binding signal (z-score) [6]: -0.04 | glycan array binding signal (z-score) (Man(a1-3)[Man(a1-6)]Man): 0.568 | glycan array binding signal (z-score) [7]: 0.172 | glycan array binding signal (z-score) [8]: 0 | glycan array binding signal (z-score) [9]: 0.02 | glycan array binding signal (z-score) [10]: -0.673 | glycan array binding signal (z-score) [11]: -0.775 | glycan array binding signal (z-score) (Man(a1-6)Man): -0.173 | glycan array binding signal (z-score) (Man(b1-4)GlcNAc): -0.572 | glycan array binding signal (z-score) (MurNAc(b1-4)GlcNAc): -0.717 | glycan array binding signal (z-score) (Neu5Ac(a2-3)Gal): 2.35 | glycan array binding signal (z-score) [12]: -0.092 | glycan array binding signal (z-score) [13]: -0.432 | glycan array binding signal (z-score) [14]: 0.234 | glycan array binding signal (z-score) [15]: -0.554 | glycan array binding signal (z-score) [16]: 1.07 | glycan array binding signal (z-score) [17]: -0.342 | glycan array binding signal (z-score) [18]: -0.016 | glycan array binding signal (z-score) [19]: 0.138 | glycan array binding signal (z-score) [20]: -0.285 | glycan array binding signal (z-score) [21]: -0.122 | glycan array binding signal (z-score) [22]: 0.062 | glycan array binding signal (z-score) [23]: -0.522 | glycan array binding signal (z-score) [24]: -0.269 | glycan array binding signal (z-score) [25]: -0.718
